# Source: the supplement of paper PMC10849652
# Protein sequences, listed by entry. Tags and fused reporters are not part of them. Lines headed by an entry give the natural chain unless they say otherwise; changes in a name come on top.
# UniProt O43633: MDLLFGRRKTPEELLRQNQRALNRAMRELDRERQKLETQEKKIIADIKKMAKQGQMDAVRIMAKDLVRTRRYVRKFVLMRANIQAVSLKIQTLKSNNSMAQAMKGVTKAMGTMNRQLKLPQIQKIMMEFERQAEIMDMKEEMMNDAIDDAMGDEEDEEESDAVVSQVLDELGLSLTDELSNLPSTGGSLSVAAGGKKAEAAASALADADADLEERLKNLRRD
# UniProt Q8TD26: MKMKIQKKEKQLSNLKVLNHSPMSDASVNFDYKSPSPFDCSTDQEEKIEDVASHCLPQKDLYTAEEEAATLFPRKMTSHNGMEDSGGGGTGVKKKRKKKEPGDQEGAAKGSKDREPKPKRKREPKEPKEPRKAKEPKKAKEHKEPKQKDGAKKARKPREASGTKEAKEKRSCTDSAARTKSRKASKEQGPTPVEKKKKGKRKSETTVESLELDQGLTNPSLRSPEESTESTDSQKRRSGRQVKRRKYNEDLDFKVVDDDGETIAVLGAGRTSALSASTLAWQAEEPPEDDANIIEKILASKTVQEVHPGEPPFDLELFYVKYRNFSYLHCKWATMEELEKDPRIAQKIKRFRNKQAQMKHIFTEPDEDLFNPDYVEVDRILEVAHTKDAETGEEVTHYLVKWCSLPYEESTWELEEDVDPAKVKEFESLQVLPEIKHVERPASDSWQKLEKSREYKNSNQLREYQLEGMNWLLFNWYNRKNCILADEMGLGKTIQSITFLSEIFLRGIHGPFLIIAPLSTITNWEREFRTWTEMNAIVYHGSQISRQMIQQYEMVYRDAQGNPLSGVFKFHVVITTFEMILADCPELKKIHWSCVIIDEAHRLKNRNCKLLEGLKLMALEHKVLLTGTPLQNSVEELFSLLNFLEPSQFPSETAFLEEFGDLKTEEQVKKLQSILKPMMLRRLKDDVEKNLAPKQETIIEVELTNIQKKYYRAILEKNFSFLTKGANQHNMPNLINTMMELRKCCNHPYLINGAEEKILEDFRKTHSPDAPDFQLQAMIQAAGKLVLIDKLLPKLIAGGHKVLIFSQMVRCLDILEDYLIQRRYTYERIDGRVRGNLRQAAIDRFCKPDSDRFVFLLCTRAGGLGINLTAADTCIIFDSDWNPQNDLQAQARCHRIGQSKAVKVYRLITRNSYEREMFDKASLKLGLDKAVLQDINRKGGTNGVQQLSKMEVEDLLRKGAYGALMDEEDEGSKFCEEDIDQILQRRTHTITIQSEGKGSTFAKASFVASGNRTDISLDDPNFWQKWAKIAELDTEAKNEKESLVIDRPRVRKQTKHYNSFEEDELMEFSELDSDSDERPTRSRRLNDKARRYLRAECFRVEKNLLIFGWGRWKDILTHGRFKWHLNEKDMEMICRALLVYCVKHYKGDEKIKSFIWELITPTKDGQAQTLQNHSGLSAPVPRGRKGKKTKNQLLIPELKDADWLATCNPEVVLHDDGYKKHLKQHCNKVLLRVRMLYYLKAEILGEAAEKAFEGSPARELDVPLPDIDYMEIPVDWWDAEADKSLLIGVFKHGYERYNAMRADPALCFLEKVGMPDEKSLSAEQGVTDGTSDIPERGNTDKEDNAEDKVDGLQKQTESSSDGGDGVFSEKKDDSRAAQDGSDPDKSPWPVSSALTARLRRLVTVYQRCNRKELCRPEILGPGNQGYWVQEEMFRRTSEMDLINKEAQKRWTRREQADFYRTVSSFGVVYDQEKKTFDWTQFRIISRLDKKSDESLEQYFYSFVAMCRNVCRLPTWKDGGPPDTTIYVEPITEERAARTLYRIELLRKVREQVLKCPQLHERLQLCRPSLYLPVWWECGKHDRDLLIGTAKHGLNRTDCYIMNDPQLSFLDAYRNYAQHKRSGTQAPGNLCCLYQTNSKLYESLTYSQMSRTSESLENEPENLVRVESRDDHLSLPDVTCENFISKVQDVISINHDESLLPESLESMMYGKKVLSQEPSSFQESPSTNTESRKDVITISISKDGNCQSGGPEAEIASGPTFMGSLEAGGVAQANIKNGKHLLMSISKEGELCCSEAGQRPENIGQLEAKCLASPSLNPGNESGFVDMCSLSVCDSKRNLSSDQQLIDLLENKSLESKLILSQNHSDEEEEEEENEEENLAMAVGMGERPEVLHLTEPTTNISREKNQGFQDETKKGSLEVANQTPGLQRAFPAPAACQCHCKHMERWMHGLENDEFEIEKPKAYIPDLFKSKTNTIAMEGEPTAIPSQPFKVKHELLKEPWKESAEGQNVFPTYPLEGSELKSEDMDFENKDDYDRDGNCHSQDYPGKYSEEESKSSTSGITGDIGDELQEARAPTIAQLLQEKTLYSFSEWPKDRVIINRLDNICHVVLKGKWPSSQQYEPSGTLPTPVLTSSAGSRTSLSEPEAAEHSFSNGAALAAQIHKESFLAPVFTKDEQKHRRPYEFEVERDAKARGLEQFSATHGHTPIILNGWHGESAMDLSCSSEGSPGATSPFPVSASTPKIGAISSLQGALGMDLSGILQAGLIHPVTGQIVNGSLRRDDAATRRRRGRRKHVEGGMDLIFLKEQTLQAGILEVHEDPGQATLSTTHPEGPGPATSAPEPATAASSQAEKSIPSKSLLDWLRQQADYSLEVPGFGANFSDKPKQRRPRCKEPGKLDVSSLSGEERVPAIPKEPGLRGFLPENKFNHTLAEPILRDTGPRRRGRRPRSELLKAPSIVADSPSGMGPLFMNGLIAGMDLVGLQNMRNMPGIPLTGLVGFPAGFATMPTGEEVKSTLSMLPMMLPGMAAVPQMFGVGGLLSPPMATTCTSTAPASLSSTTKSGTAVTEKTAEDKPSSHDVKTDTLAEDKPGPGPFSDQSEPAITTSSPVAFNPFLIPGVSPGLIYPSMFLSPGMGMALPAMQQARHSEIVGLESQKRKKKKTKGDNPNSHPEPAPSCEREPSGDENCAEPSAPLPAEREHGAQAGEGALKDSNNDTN
# UniProt P21127: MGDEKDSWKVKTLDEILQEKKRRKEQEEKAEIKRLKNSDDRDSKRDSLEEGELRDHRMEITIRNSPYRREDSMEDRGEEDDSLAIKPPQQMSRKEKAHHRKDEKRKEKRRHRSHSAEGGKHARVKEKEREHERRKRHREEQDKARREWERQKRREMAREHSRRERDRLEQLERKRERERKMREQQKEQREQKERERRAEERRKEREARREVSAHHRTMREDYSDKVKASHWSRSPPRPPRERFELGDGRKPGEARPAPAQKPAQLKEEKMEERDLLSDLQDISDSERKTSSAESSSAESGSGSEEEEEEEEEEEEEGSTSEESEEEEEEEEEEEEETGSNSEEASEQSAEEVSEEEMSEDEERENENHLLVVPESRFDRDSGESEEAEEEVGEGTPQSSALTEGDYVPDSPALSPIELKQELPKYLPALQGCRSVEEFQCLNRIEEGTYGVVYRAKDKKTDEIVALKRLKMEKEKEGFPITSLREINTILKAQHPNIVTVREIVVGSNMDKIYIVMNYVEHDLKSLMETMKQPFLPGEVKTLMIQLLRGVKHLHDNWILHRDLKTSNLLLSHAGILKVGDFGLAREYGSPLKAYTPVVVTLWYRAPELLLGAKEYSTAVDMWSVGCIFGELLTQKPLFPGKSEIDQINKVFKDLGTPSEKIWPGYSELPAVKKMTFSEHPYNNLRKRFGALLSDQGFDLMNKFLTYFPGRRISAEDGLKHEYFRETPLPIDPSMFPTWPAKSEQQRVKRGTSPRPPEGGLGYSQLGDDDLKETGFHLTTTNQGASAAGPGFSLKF
# UniProt P41208: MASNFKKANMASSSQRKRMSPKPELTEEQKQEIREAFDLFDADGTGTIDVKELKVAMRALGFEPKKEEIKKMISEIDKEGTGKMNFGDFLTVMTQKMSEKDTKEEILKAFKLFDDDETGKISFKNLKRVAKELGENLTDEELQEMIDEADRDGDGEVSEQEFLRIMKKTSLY
# UniProt O96017, whole entry, looked up: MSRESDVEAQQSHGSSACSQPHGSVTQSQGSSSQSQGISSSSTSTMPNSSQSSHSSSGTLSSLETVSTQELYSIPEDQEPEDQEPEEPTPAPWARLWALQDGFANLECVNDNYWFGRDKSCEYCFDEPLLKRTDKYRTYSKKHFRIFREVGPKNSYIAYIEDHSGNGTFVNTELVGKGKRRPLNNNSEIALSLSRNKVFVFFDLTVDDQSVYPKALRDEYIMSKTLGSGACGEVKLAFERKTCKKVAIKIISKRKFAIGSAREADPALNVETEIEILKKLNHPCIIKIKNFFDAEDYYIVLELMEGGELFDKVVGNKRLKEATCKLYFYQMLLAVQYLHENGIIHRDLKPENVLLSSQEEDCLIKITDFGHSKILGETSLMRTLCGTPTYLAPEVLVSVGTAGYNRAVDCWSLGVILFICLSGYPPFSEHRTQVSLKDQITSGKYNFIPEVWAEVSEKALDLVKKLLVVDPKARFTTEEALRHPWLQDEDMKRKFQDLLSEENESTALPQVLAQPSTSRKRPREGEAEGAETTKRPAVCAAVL
# UniProt P23528, whole entry, looked up: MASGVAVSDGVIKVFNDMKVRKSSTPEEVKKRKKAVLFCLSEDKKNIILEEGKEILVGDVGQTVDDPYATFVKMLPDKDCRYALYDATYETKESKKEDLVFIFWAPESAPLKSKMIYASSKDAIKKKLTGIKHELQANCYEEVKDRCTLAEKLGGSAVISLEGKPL
# UniProt Q9H5V8, whole entry, looked up: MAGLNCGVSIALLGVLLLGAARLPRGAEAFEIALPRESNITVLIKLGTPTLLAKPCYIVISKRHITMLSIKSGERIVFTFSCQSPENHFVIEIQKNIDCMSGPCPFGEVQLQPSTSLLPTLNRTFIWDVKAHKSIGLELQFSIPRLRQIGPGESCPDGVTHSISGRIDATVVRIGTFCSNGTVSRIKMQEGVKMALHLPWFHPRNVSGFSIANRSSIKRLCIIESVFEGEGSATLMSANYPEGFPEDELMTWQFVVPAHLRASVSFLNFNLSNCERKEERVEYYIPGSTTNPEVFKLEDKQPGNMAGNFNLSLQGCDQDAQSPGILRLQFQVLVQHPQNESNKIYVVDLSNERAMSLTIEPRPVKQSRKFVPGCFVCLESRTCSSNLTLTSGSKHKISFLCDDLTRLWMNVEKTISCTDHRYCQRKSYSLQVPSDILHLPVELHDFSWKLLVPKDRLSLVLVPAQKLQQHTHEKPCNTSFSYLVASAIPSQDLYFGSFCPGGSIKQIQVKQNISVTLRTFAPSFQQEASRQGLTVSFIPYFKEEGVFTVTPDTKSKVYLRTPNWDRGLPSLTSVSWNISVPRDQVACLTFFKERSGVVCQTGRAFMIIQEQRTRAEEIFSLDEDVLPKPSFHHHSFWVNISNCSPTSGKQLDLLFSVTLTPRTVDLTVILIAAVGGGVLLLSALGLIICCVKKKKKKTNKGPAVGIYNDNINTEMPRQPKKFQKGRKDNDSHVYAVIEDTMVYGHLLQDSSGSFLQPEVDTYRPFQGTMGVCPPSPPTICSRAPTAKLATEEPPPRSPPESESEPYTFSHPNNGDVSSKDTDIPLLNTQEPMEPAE
# UniProt Q9Y6K0: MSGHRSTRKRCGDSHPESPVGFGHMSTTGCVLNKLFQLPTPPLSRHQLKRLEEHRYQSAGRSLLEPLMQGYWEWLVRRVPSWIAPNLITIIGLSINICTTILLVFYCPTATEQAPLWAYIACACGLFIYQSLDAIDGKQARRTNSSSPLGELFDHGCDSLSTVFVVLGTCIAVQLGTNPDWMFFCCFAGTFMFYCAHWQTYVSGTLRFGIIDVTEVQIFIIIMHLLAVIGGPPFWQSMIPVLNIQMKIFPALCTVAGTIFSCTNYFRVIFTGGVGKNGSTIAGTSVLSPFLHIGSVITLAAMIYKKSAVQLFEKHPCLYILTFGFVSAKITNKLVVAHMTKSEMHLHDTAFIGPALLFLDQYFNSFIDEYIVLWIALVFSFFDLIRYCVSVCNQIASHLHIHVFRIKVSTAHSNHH
# UniProt Q9UFW8: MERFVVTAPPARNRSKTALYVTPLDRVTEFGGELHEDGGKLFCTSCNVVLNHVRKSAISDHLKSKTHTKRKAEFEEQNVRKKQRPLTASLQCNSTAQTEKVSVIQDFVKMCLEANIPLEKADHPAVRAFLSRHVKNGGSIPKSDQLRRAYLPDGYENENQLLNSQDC
# UniProt O95319: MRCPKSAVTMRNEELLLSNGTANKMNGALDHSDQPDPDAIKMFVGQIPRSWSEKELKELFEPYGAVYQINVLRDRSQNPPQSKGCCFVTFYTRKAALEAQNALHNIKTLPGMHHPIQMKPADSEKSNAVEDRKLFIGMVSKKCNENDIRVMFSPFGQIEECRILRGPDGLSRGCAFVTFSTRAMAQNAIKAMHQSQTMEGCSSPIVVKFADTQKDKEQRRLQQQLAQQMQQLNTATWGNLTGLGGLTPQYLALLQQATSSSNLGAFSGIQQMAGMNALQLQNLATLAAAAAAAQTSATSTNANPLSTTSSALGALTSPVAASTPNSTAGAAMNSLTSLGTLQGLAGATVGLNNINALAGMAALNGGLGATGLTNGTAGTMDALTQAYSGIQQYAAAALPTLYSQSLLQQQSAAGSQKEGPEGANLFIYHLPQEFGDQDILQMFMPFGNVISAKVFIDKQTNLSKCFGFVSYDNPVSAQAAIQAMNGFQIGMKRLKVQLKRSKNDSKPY
# The other results are listed elsewhere or left out.
# Compound: Cc1nc(Nc2ncc(C(=O)Nc3c(C)cccc3Cl)s2)cc(N2CCN(CCO)CC2)n1 [dasatinib]
# Assay: log2 fold change, soluble protein after heating vs DMSO (PISA); higher = thermal stabilisation; K562 cells, 10 uM, 30 min; active = over 0.2 and 3.5 SD of the protein, either way, in both replicates (recomputed)
# In short: (§1)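 Quantification of soluble protein used TMTpro 16plex LC-MS/MS, with channel sums equalised. Samples were the supernatant after 21,000xg for 90 min of pooled aliquots from K562 cells (2×10^6 cells/mL) treated with 10 μM compound for 30 min, heated for 3 min over 48°C-58°C, and extracted in PBS with 0.5% NP-40 at 4°C. Values, from duplicates, describe thermal stability against control samples on a log2 fold-change scale.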
row,Target,log2 fold change
1,CHIC2 (UniProt Q9UKJ5),inactive: 0.035
2,CFDP1 (UniProt Q9UEE9),inactive: 0.069
3,CHMP2A (UniProt O43633),inactive: -0.005
4,CHD4 isoform 2 (UniProt Q14839),inactive: -0.059
5,CEP76 (UniProt Q8TAP6),inactive: 0.014
6,CDK5RAP3 isoform 4 (UniProt Q96JB5),inactive: -0.082
7,CHKA (UniProt P35790),inactive: 0.07
8,CDC73 (UniProt Q6P1J9),inactive: -0.039
9,CHCHD3 (UniProt Q9NX63),inactive: 0.012
10,CDKAL1 (UniProt Q5VV42),inactive: -0.011
11,CDK13 (UniProt Q14004),inactive: -0.089
12,CFAP20 (UniProt Q9Y6A4),inactive: 0.049
13,CHD6 (UniProt Q8TD26),inactive: 0.057
14,CHMP4A isoform 2 (UniProt Q9BY43),inactive: 0.033
15,CHMP4B (UniProt Q9H444),inactive: 0.017
16,CDK11B (UniProt P21127),inactive: 0.014
17,CHMP3 (UniProt Q9Y3E7),inactive: -0.051
18,CFAP298 (UniProt P57076),inactive: -0.072
19,CETN2 (UniProt P41208),inactive: 0.081
20,CHAC2 (UniProt Q8WUX2),inactive: 0.012

row,Target,log2 fold change
1,CETN3 (UniProt O15182),inactive: 0.068
2,CHD3 isoform 3 (UniProt Q12873),inactive: -0.086
3,CFL2 (UniProt Q9Y281),inactive: 0.006
4,CHEK2 isoform 9 (UniProt O96017),inactive: -0.006
5,CFL1 (UniProt P23528),inactive: 0.066
6,CDCP1 (UniProt Q9H5V8),inactive: 0.03
7,CDS2 (UniProt O95674),inactive: 0
8,CDC42BPA isoform 6 (UniProt Q5VT25),inactive: -0.254
9,CEPT1 (UniProt Q9Y6K0),inactive: -0.008
10,CHAMP1 (UniProt Q96JM3),inactive: -0.092
11,CGGBP1 (UniProt Q9UFW8),inactive: 0.004
12,CDK5RAP1 (UniProt Q96SZ6),inactive: 0.175
13,CERS2 (UniProt Q96G23),inactive: -0.113
14,CDK16 isoform 2 (UniProt Q00536),inactive: 0
15,CDCA5 (UniProt Q96FF9),inactive: 0.081
16,CHMP4C (UniProt Q96CF2),inactive: -0.027
17,CELF2 isoform 3 (UniProt O95319),inactive: -0.005
18,CERS5 (UniProt Q8N5B7),inactive: -0.048
19,CDCA3 (UniProt Q99618),inactive: -0.004

# Compound: Cc1ncc(-c2ccnc(Nc3ccc(S(C)(=O)=O)cc3)n2)n1C(C)C
# Assay: as above
# In short: as §1
row,Target,log2 fold change
1,CHIC2 (UniProt Q9UKJ5),inactive: 0.132
2,CFDP1 (UniProt Q9UEE9),inactive: -0.008
3,CHMP2A (UniProt O43633),inactive: 0.004
4,CHD4 isoform 2 (UniProt Q14839),inactive: -0.137
5,CEP76 (UniProt Q8TAP6),inactive: -0.01
6,CDK5RAP3 isoform 4 (UniProt Q96JB5),inactive: 0.054
7,CHKA (UniProt P35790),inactive: 0.088
8,CDC73 (UniProt Q6P1J9),inactive: -0.053
9,CHCHD3 (UniProt Q9NX63),inactive: -0.008
10,CDKAL1 (UniProt Q5VV42),inactive: -0.009
11,CDK13 (UniProt Q14004),inactive: -0.108
12,CFAP20 (UniProt Q9Y6A4),inactive: -0.048
13,CHD6 (UniProt Q8TD26),inactive: 0.335
14,CHMP4A isoform 2 (UniProt Q9BY43),inactive: -0.008
15,CHMP4B (UniProt Q9H444),inactive: -0.023
16,CDK11B (UniProt P21127),inactive: -0.036
17,CHMP3 (UniProt Q9Y3E7),inactive: -0.017
18,CFAP298 (UniProt P57076),inactive: 0.043
19,CETN2 (UniProt P41208),inactive: -0.001
20,CHAC2 (UniProt Q8WUX2),inactive: 0.012

row,Target,log2 fold change
1,CETN3 (UniProt O15182),inactive: -0.013
2,CHD3 isoform 3 (UniProt Q12873),inactive: -0.172
3,CFL2 (UniProt Q9Y281),inactive: -0.01
4,CHEK2 isoform 9 (UniProt O96017),inactive: -0.059
5,CFL1 (UniProt P23528),inactive: 0.022
6,CDCP1 (UniProt Q9H5V8),inactive: 0.035
7,CDS2 (UniProt O95674),inactive: 0.002
8,CDC42BPA isoform 6 (UniProt Q5VT25),inactive: 0.135
9,CEPT1 (UniProt Q9Y6K0),inactive: 0.044
10,CHAMP1 (UniProt Q96JM3),inactive: -0.123
11,CGGBP1 (UniProt Q9UFW8),inactive: -0.014
12,CDK5RAP1 (UniProt Q96SZ6),inactive: -0.006
13,CERS2 (UniProt Q96G23),inactive: 0.028
14,CDK16 isoform 2 (UniProt Q00536),active: 0.679
15,CDCA5 (UniProt Q96FF9),inactive: -0.006
16,CHMP4C (UniProt Q96CF2),inactive: 0
17,CELF2 isoform 3 (UniProt O95319),inactive: 0.079
18,CERS5 (UniProt Q8N5B7),inactive: 0.078
19,CDCA3 (UniProt Q99618),inactive: 0.003
